Experimental data from paper doi:10.1101/2020.05.18.101170.
These are yes or no findings as the source states them, for the method shown. In cells and extracts the contact can be indirect. Some results given as binding are weak or reduced against the parent protein; the word gives no strength. Tags and fused reporters may be left off the sequences shown.

Chains of the proteins cited; added tags and fusions are not shown.
UniProt P32121: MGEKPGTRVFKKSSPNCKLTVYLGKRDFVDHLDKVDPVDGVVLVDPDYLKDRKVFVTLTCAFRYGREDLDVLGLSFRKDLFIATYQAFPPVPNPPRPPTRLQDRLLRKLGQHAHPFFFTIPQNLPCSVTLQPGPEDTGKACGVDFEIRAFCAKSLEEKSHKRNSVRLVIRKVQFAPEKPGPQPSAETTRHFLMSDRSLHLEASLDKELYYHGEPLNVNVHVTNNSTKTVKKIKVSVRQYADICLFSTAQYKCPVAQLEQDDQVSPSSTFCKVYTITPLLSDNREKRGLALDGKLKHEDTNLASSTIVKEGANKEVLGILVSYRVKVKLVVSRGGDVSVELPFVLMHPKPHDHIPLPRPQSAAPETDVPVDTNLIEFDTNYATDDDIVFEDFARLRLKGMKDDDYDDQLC

Molecular target: T1, FLAG-FFA4-eYFP (mouse FFA4) (mouse) (UniProt Q7TMA4)
T1 sequence: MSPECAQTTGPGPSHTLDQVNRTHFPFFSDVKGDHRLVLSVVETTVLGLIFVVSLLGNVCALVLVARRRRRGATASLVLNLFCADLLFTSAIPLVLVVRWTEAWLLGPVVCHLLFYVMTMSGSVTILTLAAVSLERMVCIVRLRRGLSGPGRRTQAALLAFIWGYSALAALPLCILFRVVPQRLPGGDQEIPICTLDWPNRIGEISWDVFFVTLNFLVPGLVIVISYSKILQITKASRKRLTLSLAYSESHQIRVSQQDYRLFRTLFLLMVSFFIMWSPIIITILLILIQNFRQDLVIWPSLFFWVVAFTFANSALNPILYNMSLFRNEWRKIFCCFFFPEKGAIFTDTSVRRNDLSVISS
Assay: FRET or BRET

binding: binds
Substance: arrestin3-Rluc (from UniProt P32121 1-409)
